# Results deposited as PubChem BioAssay AID1224828 (NIAID, 2016).
# Test: 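Find genes required for NF-kappaB p65 moving into the nucleus after LPS in mouse macrophages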 (primary screen)
# Cell system: mouse RAW264.7 G9 macrophage reporter cells (GFP-p65, Tnf promoter-mCherry)
# Reagents: siRNA pool against mouse genes, 100 nM
# Time to read-out: 2 days siRNA transfection, then 40 min LPS before fixation
# Conditions: LPS (Salmonella minnesota R595) at 10 ng/ml
# Measured: 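Microscopy ratio of nuclear to perinuclear-ring GFP-p65 signal, scaled to the plate median; gene score is the average of two replicate robust z-scores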
# Reading the numbers: p65 translocation robust z-score: higher = more nuclear NF-kappaB p65 after LPS than the plate median; nuclear/cytoplasmic p65 ratio: higher = more nuclear NF-kappaB p65
# Hit rule: 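Active if robust z is above 3.3 (negative regulators) or below -1.56, the Tlr4 control median (positive regulators); activity score 50 or more; control wells not called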
# Calls: active = hit (p65 shift raised or lowered); inactive = no clear change
# The whole screen tested about 17,000 reagents; below is an unselected part. 762 of all reagents (4.5%) were called active. 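Active calls include both raised and lowered p65 entry, mostly lowered; wells with fewer than 50 cells lack a z-score.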 Raw values are not corrected between plates. Reagent sequences are not shown.
Gene,p65 translocation robust z-score,"nuclear/cytoplasmic p65 ratio, rep 1","nuclear/cytoplasmic p65 ratio, rep 2",low cell count flag,Outcome
Paxx,0.46,1.66,1.91,enough cells to score,inactive
Gsdme,-1.64,1.28,1.14,enough cells to score,active
Slc20a1,0.54,1.41,1.37,enough cells to score,inactive
2810021J22Rik,0.39,1.42,1.54,enough cells to score,inactive
Ano9,-1.72,1.19,1.18,enough cells to score,active
Khdc1a,-1.12,1.37,1.73,enough cells to score,inactive
H2-Q7,-0.64,1.35,1.3,enough cells to score,inactive
Dnase1l2,,1.08,1.25,fewer than 50 cells per well; well left out of scoring,inactive
Or12e8,1.07,1.9,1.67,enough cells to score,inactive
Or51ai2,,1.62,1.32,fewer than 50 cells per well; well left out of scoring,inactive
Pcdha4,0.17,1.46,1.26,enough cells to score,inactive
Mtcl1,,1.75,1.59,fewer than 50 cells per well; well left out of scoring,inactive
Dennd1b,,1.36,1.27,fewer than 50 cells per well; well left out of scoring,inactive
Vmn1r13,,1.15,1.18,fewer than 50 cells per well; well left out of scoring,inactive
Cacna1s,-0.84,1.44,1.54,enough cells to score,inactive
Rpsa,-1.01,1.32,1.27,enough cells to score,inactive
Rdh1,-1.59,1.17,1.07,enough cells to score,active
Ucma,-0.48,1.38,1.47,enough cells to score,inactive
Epb42,-0.98,1.41,1.23,enough cells to score,inactive
Nat2,-0.77,1.35,1.24,enough cells to score,inactive
Kcnj8,0.87,1.61,1.48,enough cells to score,inactive
Trarg1,-0.54,1.31,1.5,enough cells to score,inactive
Zfp65,-0.63,1.33,1.18,enough cells to score,inactive
B3gnt5,0.8,1.63,1.71,enough cells to score,inactive
Dars2,-0.46,1.31,1.39,enough cells to score,inactive
Sema4g,,1.6,1.28,fewer than 50 cells per well; well left out of scoring,inactive
Srr,0.68,1.46,1.35,enough cells to score,inactive
Fam117a,1.18,1.51,1.63,enough cells to score,inactive
Sgcg,-0.49,1.41,1.55,enough cells to score,inactive
Stx7,-0.85,1.23,1.2,enough cells to score,inactive
Schip1,1.48,1.63,1.37,enough cells to score,inactive
Mcm3,-0.8,1.33,1.25,enough cells to score,inactive
Zfp638,1.17,1.85,1.74,enough cells to score,inactive
Nsun4,0.46,1.45,1.54,enough cells to score,inactive
Pik3cd,0.26,1.53,1.45,enough cells to score,inactive
Stox2,-1.12,1.18,1.17,enough cells to score,inactive
Prpf18,0.11,1.63,1.63,enough cells to score,inactive
Il2,,1.73,1.42,fewer than 50 cells per well; well left out of scoring,inactive
D030022P06RIK,-0.43,1.52,1.7,enough cells to score,inactive
Eps8,0.13,1.44,1.42,enough cells to score,inactive
